PubChem BioAssay AID977628 (Broad Institute, 2014)
Out of some 1,900 compounds screened, fewer than 10 were called active. The shares of active, inactive and inconclusive entries below differ from those in the screen.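 How the source made its calls: active means compound lowering the normal-ribosome reporter at least twice as much as the humanized-ribosome reporter, growth loss under a set limit; inconclusive means no clear call, values can overlap the other calls; inactive means the rest.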

Assay: E. coli growth inhibition, wild-type GFP versus h24 humanized RFP strain, dose response, h24 mutant RFP vs wild-type GFP, cherry-pick (AID 977628);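 further: wild-type GFP and h24 humanized RFP strains co-cultured 1 to 1 per well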
Details: E. coli WT GFP strain growth, fluorescence, 24 h; at 50 µM (top of the series)

Row | SMILES | activity change, negative = inhibition
1 | Cc1nc2ccc(Br)cc2c(=O)n1-c1ccc([N+](=O)[O-])c(C(F)(F)F)c1 | inactive: -7.66
2 | CSc1ccc(CN2CCN(Cc3ccccc3Cl)CC2)cc1 | inconclusive: -4.54
3 | Cc1c(-c2cccc(Cl)c2)nc2ccccc2c1C(=O)N1CCC2(CC1)OCCO2 | inconclusive: -20.8
4 | C[C@]12CCC(=O)C[C@H]1CC[C@@H]1[C@@H]2CC[C@]2(C)C(=O)CC[C@@H]12 | inconclusive: -35.3
5 | O=C(c1sc2ccccc2c1Cl)N1CCC2(CC1)OCCO2 | inactive: -9.7
6 | O=C(c1ccc(Cl)cc1)C1CCCN(Cc2cccc3cnccc23)C1 (stereo unspecified) | inconclusive: -12.3
7 | CC(C)CCn1c(N)c(C(=O)NCc2cccs2)c2nc3ccccc3nc21 | inconclusive: -5.05
8 | Cc1c(C(=O)Nc2ccccc2)c2cc(O)ccc2n1Cc1ccccc1 | inconclusive: -6.52
9 | CN1CCC(c2c[nH]c3ccccc23)C1 (stereo unspecified) | inconclusive: 1.3
10 | Nc1c(C(=O)NCCN2CCOCC2)c2nc3ccccc3nc2n1Cc1ccccc1 | inconclusive: -12.8
11 | COc1ccc(C2CN(C)CC2C(=O)c2ccc(C)cc2)cc1Cl (stereo unspecified) | inconclusive: -14.6

Part of the list above, with tabs:
Row	SMILES	activity change, negative = inhibition
9	CN1CCC(c2c[nH]c3ccccc23)C1 (stereo unspecified)	inconclusive: 1.3
10	Nc1c(C(=O)NCCN2CCOCC2)c2nc3ccccc3nc2n1Cc1ccccc1	inconclusive: -12.8
